Hit rate of the full screen: of about 330,000 compounds, about 7,700 (2.3%) were called active. Inconclusive results, whose numbers are uncertain, are shown with a selection of clear calls. The call rests on the fitted dose curve; in most records, active means well fitted inhibition curve with a large enough effect; inconclusive means small, poorly fitted or top-dose-only effect, or effect the other way; inactive means flat fitted curve, though single readings scatter. Potencies of inconclusive entries are doubtful fits and often do not repeat.
Assay: qHTS screen for small molecules that inhibit ELG1-dependent DNA repair in human embryonic kidney (HEK293T) cells expressing luciferase-tagged ELG1; further: nearly all actives have a fitted effect of over 55% in size
Conditions: HEK293T ELG1-luciferase reporter, luminescence, 16 h, DNA damage induced by 5-fluorouridine; series mostly up to 46.1 µM
How it was run: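 Cells (2,000 per well) received 5-fluorouridine plus test compound or DMSO and were incubated 16 hr at 37 °C, 5% CO2. Luciferase activity was read by luminescence 30 min after ONE-Glo addition; signal suppression marked inhibition of damage-induced ELG1 function.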
Potency means the concentration at half of the fitted maximal effect.

For `CC[C@H](C)Cc1cn([C@@H](CCCN=C(NC(=O)OC(C)(C)C)NC(=O)OC(C)(C)C)C(=O)NCCCCCCCCCCC(=O)N2CCN(C(=O)OC(C)(C)C)CC2)nn1`, which Potency is on record?
Its Potency is active: 7.3 µM.

With `CCOC(=O)COc1cc(Br)c(/C=N/Nc2ccccc2)cc1OC` as the compound, how does the Potency read?
Its Potency is “inactive”.

With `COc1ccc(OCCCn2cc(/C=C3/C(=N)N4C=C(C)SC4=NC3=O)c3ccccc32)cc1` as the compound, how does the Potency read?
Its Potency is inconclusive: 13 µM [inhibitor, partial curve, poor fit].

With `O=C(Cn1c(=O)oc2cc(S(=O)(=O)N3CCc4ccccc43)ccc21)N1CCCCC1` as the compound, how does the Potency read?
Its Potency is inconclusive: 23.1 µM [inhibitor, partial curve, poor fit].

Which Potency does the source give for `O=C(CN1CCN(c2ccccc2)CC1)Nc1cccc(C(F)(F)F)c1` here?
The Potency was “inactive”.

For `Cc1ccc(NS(=O)(=O)c2ccc(C(=O)NCc3ccncc3)cc2)cc1`, which Potency is on record?
The Potency was inconclusive: 16.4 µM [inhibitor, partial curve, poor fit].

With `Cc1ccccc1Nc1ccc([N+](=O)[O-])cn1` as the compound, how does the Potency read?
The Potency was inconclusive: 7.3 µM [activator, partial curve, poor fit].

Which Potency does the source give for `O=C(Nc1cccnc1)c1ccc([N+](=O)[O-])s1` here?
The Potency was inconclusive: 8.2 µM [inhibitor, partial curve, poor fit].

Which Potency does the source give for `COc1ccccc1C(O)P(=O)(OCC(C)C)c1ccc(N(C)C)cc1` (stereo unspecified) here?
Its Potency is “inactive”.

With `Cc1cc(C(=O)NCc2cccs2)cs1` as the compound, how does the Potency read?
The Potency was inconclusive: 23.1 µM [activator, single point].

Which Potency does the source give for `O=C(CCc1ccccc1O)N/N=C/c1ccc(Sc2cccc3cccnc23)o1` here?
The Potency was inconclusive: 16.4 µM [inhibitor, partial curve].

Which Potency does the source give for `O=C(NCCc1ccccc1)c1ccc(NS(=O)(=O)c2ccc3[nH]c(=O)[nH]c3c2)cc1` here?
The Potency was inconclusive: 11.6 µM [activator, single point].

For `COc1ccc(OC(=O)c2ccc(Cl)cc2)c(C(C)=O)c1`, which Potency is on record?
The Potency was inconclusive: 18.3 µM [activator, partial curve].

Which Potency does the source give for `COc1ccc(/C=N/NC(=O)c2ccc3ccccc3c2)cc1OS(=O)(=O)c1ccc(NC(C)=O)cc1` here?
Its Potency is inconclusive: 18.4 µM [inhibitor, partial curve, poor fit].

Which Potency does the source give for `Oc1ccc2ccccc2c1C=Nc1ccccc1-c1nc2ccccc2[nH]1` here?
Its Potency is inconclusive: 20.6 µM [activator, partial curve].

With `CCNC(=O)NC(=O)CSc1ccc2ccccc2c1` as the compound, how does the Potency read?
The Potency was inconclusive: 2.91 µM [inhibitor, full curve].

Which Potency does the source give for `COc1cc2c(cc1NC(=O)CCCN1C(=O)CCC1=O)oc1ccccc12` here?
The Potency was inconclusive: 10.3 µM [activator, partial curve].

With `COc1cccc(NC(=O)Nc2nnc(CC(=O)NCc3ccccc3)s2)c1` as the compound, how does the Potency read?
Its Potency is inconclusive: 6.51 µM [inhibitor, full curve].

With `Cc1c(C(=O)N2CCCCC2)oc2ccc(S(=O)(=O)N3CC(C)CC(C)C3)cc12` (stereo unspecified) as the compound, how does the Potency read?
The Potency was “inactive”.

For `CN(C)S(=O)(=O)c1ccc(C(=O)Nc2cc3c(cc2C(=O)O)OCCCO3)cc1`, which Potency is on record?
Its Potency is “inactive”.

For `CCOc1ccc(NC(=S)Nc2ccc(OCc3ccccc3)cc2)cc1`, which Potency is on record?
Its Potency is inconclusive: 3.26 µM [activator, full curve, poor fit].

For `COc1ccccc1CNC(=S)Nc1cc(C)ccc1C`, which Potency is on record?
The Potency was “inactive”.

Which Potency does the source give for `CCCN1C/C(=C/c2ccc3c(c2)OCO3)C(=O)/C(=C/c2ccc3c(c2)OCO3)C1` here?
Its Potency is active: 23.1 µM.

With `CCOC(=O)CSc1nc2ccc(Nc3nc(N4CCOCC4)nc(N4CCOCC4)n3)cc2s1` as the compound, how does the Potency read?
Its Potency is inconclusive: 18.4 µM [inhibitor, partial curve].

For `CC(=O)N1c2ccc(S(=O)(=O)N3CCC(C(=O)N4CCCCC4)CC3)cc2CC1C` (stereo unspecified), which Potency is on record?
Its Potency is “inactive”.

For `Cc1ccc(/C=N/NC(=O)c2ccoc2C)o1`, which Potency is on record?
The Potency was inconclusive: 20.6 µM [activator, partial curve].

Which Potency does the source give for `O=C(Nc1cccc([N+](=O)[O-])c1)c1cccc(C(=O)Nc2cccc([N+](=O)[O-])c2)c1` here?
The Potency was inconclusive: 4.11 µM [inhibitor, partial curve, poor fit].

Which Potency does the source give for `CCc1cc(C(=O)N/N=C/c2ccc(O)cc2O)c2ccccc2n1` here?
Its Potency is inconclusive: 3.66 µM [inhibitor, single point].

Which Potency does the source give for `O=c1oc(Nc2cccc(Cl)c2)nc2ccccc12` here?
Its Potency is inconclusive: 23.1 µM [activator, partial curve].

For `CCc1cc2c(SCC(=O)c3cccs3)ncnc2s1`, which Potency is on record?
The Potency was inconclusive: 20.6 µM [activator, single point].

Which Potency does the source give for `CCOc1ccc(NC(=O)N2CCC(n3nnc4cc(C)ccc43)CC2)cc1` here?
Its Potency is inconclusive: 16.4 µM [inhibitor, partial curve].

With `CCOC(=O)c1sc(=S)n(-c2cc(F)ccc2F)c1N` as the compound, how does the Potency read?
The Potency was “inactive”.

With `CCOC(=O)CC1COc2ccccc2N1C(=O)c1ccc(F)cc1` (stereo unspecified) as the compound, how does the Potency read?
The Potency was “inactive”.

For `O=C(NCCn1cc(SCc2ccccc2F)c2ccccc21)c1c(F)cccc1F`, which Potency is on record?
Its Potency is inconclusive: 29.1 µM [inhibitor, single point].

With `O=[N+]([O-])c1cccc(-c2ccc(C(=S)N3CCOCC3)o2)c1` as the compound, how does the Potency read?
Its Potency is inconclusive: 3.26 µM [activator, partial curve].

For `O=C(NC1CC1)c1cccc(NC(=O)c2cc(S(=O)(=O)N3CCOCC3)ccc2Cl)c1`, which Potency is on record?
Its Potency is inconclusive: 29.1 µM [inhibitor, single point].

Which Potency does the source give for `CN(C)S(=O)(=O)c1cccc(NC(=O)CSc2nnnn2-c2ccccc2)c1` here?
The Potency was inconclusive: 29.1 µM [inhibitor, single point].

With `O=C(NCCc1cscn1)C1CCC(=O)N(Cc2ccc(Cl)cc2)C1` (stereo unspecified) as the compound, how does the Potency read?
Its Potency is “inactive”.

Which Potency does the source give for `CS(=O)(=O)c1cccc(-c2csc(N3CCC(C(N)=O)CC3)n2)c1` here?
Its Potency is inconclusive: 0.73 µM [activator, partial curve, poor fit].

With `COC(=O)c1ccccc1C(=O)N1CCCC(CCC(=O)NCc2ccc(F)c(F)c2)C1` (stereo unspecified) as the compound, how does the Potency read?
The Potency was inconclusive: 2.59 µM [activator, full curve].

Which Potency does the source give for `CCOc1ccc(-c2nn(-c3ccccc3)cc2/C=C(\C#N)S(=O)(=O)c2ccccc2)cc1C` here?
Its Potency is inconclusive: 14.1 µM [activator, single point].

With `CC(=O)Nc1ccc(NC(=O)C(C)OC(=O)c2oc3ccccc3c2C)cc1` (stereo unspecified) as the compound, how does the Potency read?
Its Potency is inconclusive: 10 µM [inhibitor, partial curve, poor fit].

Which Potency does the source give for `COc1ccc(/C=C/C(=O)Oc2cc(O)cc(O)c2)cc1` here?
The Potency was “inactive”.

With `Cc1ccc(-c2cc(C(=O)N3CCN(c4ccc(O)cc4)CC3)c3ccccc3n2)cc1` as the compound, how does the Potency read?
Its Potency is inconclusive: 6.51 µM [inhibitor, single point].

Which Potency does the source give for `COc1ccc(-c2onc(C)c2-c2ccc3c(c2)OCCO3)c(O)c1` here?
The Potency was inconclusive: 29.1 µM [inhibitor, single point].

With `O=C(O)c1cccc2c1C(=O)c1ccc(-c3ccc(Cl)c(C(F)(F)F)c3)cc1S2(=O)=O` as the compound, how does the Potency read?
Its Potency is inconclusive: 23.1 µM [activator, single point].

Which Potency does the source give for `O=C(NCCN1CCOCC1)c1sc2cc(Cl)ccc2c1Cl` here?
Its Potency is inconclusive: 13 µM [activator, partial curve].

Which Potency does the source give for `Cc1ccc(O)c(NC(=O)c2cc(-c3ccccc3)on2)c1` here?
Its Potency is inconclusive: 1.41 µM [activator, full curve, poor fit].

Which Potency does the source give for `O=C(Nc1ccccc1)Nc1cccc(NC(=O)Nc2ccccc2)c1F` here?
Its Potency is inconclusive: 13 µM [activator, partial curve, poor fit].

For `Cc1ccc(Oc2nc3c(c(=O)n(Cc4ccccc4F)c(=O)n3C)n2C)cc1`, which Potency is on record?
Its Potency is active: 18.4 µM.

With `O=C(Nc1ccc([N+](=O)[O-])cc1)C(=O)Nc1cccc(C(=O)O)c1` as the compound, how does the Potency read?
The Potency was inconclusive: 0.058 µM [activator, full curve, poor fit].

Which Potency does the source give for `CC(C)CN(C(=O)C1COc2ccccc2O1)c1c(N)n(CC(C)C)c(=O)[nH]c1=O` (stereo unspecified) here?
The Potency was “inactive”.

With `Cc1ccc(N=Nc2ccc(N)cc2C)c(S(N)(=O)=O)c1` as the compound, how does the Potency read?
The Potency was inconclusive: 20.6 µM [activator, single point].

For `O=C(NN=C1CCCC1)c1cccs1`, which Potency is on record?
The Potency was inconclusive: 23.1 µM [activator, partial curve].

With `COc1ccccc1/C=C\C=N\n1c(C2CCCCC2)n[nH]c1=S` as the compound, how does the Potency read?
The Potency was inconclusive: 2.59 µM [inhibitor, partial curve, poor fit].

Which Potency does the source give for `Cc1cccc(N2CCN(C(=O)COc3cccc4c3OC(C)(C)C4)CC2)c1C` here?
The Potency was active: 25.9 µM.

For `CCc1ccc(NC(=O)C2C3C=CC(C4CC34)C2C(=O)O)cc1` (stereo unspecified), which Potency is on record?
The Potency was inconclusive: 20.6 µM [activator, partial curve].

With `COc1ccc(-c2nc(C#N)c(NC(C)c3ccccc3)o2)cc1OC` (stereo unspecified) as the compound, how does the Potency read?
The Potency was inconclusive: 11.6 µM [inhibitor, partial curve, poor fit].

For `CC[C@H](C)Cc1cn([C@@H](CCCCNC(=O)OC(C)(C)C)C(=O)NCCCCCCCCCCC(=O)N2CCN(C(=O)OC(C)(C)C)CC2)nn1`, which Potency is on record?
The Potency was inconclusive: 12.6 µM [inhibitor, single point].

For `Cc1occc1-c1nnc(SCC(=O)N2CCc3ccccc32)o1`, which Potency is on record?
The Potency was “inactive”.

For `Cc1ccc(-c2nnc(N)o2)cc1`, which Potency is on record?
The Potency was inconclusive: 18.4 µM [activator, single point].

Which Potency does the source give for `Cc1ccc(S(=O)(=O)n2ccc(-c3ccc(OCc4c(F)cccc4Cl)cc3)n2)cc1` here?
The Potency was inconclusive: 6.51 µM [inhibitor, single point].

Which Potency does the source give for `O=C(CC1SCCNC1=O)Nc1ccccc1Cl` (stereo unspecified) here?
Its Potency is inconclusive: 18.3 µM [activator, single point].

With `COc1ccc(N2C(=O)CC(NC3CC3)C2=O)cc1` (stereo unspecified) as the compound, how does the Potency read?
Its Potency is “inactive”.

Which Potency does the source give for `NS(=O)(=O)OCC1CCCCC1` here?
The Potency was “inactive”.

Which Potency does the source give for `O=C(NN=C(c1ccccc1)c1ccccc1)C(CCl)C1CCCCC1` (stereo unspecified) here?
Its Potency is “inactive”.

Reference: PubChem BioAssay AID504467 (National Center for Advancing Translational Sciences (NCATS), 2011)
